Values quoted from earlier work, collected in publication PMC9040839 (mBio, 2022).
“And” between values parts separate entries of the source, which are not always exact repeats. Identical values can stand only once.

Target: PctC chemoreceptor
Conditions: cited from earlier work

## NCCCC(=O)O [GABA, gamma-aminobutyrate]
  Kd: 1.2 µM and 0.64 µM
